Reference: PubChem BioAssay AID1671190 (National Center for Advancing Translational Sciences (NCATS), 2021)
Several values for one entry are separate records, joined by “and”; a condition that tells them apart may be missing. Equal values may be shown once. Out of some 580,000 compounds screened, about 6,100 (1.1%) were called active. Inconclusive means that the source gave no clear call. Such entries were picked first, then a sample of the others. The call rests on the fitted dose curve; in most records, active means well fitted inhibition curve with a large enough effect; inconclusive means small, poorly fitted or top-dose-only effect, or another doubt; inactive means no such curve, though single readings can be large or run the other way. Potencies beside an inconclusive call are fits to weak or partial responses and may not hold up.
Potency means the concentration at half of the fitted maximal effect.

Protein sequences, listed by entry. Tags and fused reporters are not part of them. Lines headed by an entry give the natural chain unless they say otherwise; changes in a name come on top.
UniProt P18054: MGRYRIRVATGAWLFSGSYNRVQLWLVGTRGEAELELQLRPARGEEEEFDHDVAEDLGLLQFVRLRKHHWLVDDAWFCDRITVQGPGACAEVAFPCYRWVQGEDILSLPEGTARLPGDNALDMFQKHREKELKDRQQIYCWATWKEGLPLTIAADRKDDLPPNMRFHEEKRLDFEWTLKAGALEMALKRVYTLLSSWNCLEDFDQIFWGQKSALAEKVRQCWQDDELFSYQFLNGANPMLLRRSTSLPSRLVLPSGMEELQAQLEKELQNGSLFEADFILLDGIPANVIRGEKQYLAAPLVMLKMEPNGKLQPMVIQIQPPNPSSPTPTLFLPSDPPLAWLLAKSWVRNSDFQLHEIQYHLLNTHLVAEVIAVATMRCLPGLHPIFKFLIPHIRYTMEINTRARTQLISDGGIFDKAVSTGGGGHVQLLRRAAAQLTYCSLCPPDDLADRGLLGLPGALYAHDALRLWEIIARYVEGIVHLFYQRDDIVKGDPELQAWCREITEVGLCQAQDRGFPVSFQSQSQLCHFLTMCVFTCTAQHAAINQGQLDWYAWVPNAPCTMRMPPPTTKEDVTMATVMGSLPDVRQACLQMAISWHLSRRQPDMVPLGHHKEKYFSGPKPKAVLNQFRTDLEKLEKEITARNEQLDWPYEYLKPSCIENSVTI

The compounds below were run against Polyunsaturated fatty acid lipoxygenase ALOX12 (Homo sapiens) (UniProt P18054) (assay: Primary qHTS assay for inhibitors of human arachidonate 12S-lipoxygenase (ALOX12): Round 2). Details: purified 12hLO, xylenol orange hydroperoxide absorbance; series mostly up to 108 µM.
How it was run: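 Purified human 12hLO at 150 nM in 25 mM Hepes, 0.01% Triton X-100, pH 7.0, preincubated 15 min at room temperature with compound. Reaction started with 40 uM arachidonic acid, 30 min at room temperature. Hydroperoxide measured by Fe-xylenol orange, 573/405 nm absorbance ratio.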
For `COC(=O)C(C)N1C(=O)S/C(=C/c2cn(CC(N)=O)c3ccccc23)C1=O` (stereo unspecified), the Potency was inconclusive: 35.5 µM [inhibitor, partial curve, poor fit].
With `O=S(=O)(c1ccc(Cl)cc1)c1ccc(-c2ccc(S(=O)(=O)c3ccc(Cl)cc3)cc2)cc1` the Potency was active: 11.2 µM.
In the case of `O=C(Nc1cccc(C(=O)O)c1)/C(=C\c1ccco1)NC(=O)c1ccccc1`, the Potency is reported as inconclusive: 100 µM [inhibitor, partial curve, poor fit].
In the case of `CCOc1ccccc1NC(=O)COC(=O)c1cc(C(=O)OC)cc([N+](=O)[O-])c1`, the Potency is reported as “inactive”.
For `CCC(C)(C)C(=O)Nc1nnc(CCc2ccccc2)s1`, the Potency was inconclusive: 89.1 µM [inhibitor, single point].
In the case of `CN(Cc1ccco1)C(=O)CSc1nc(-c2cccs2)nc2ccccc12`, the Potency is reported as “inactive”.
For `O=c1ccn([C@@H]2O[C@H](CNCc3ccccc3OCc3ccc(Cl)cc3Cl)[C@@H](O)[C@H]2O)c(=O)[nH]1`, the Potency was inconclusive: 79.4 µM [inhibitor, single point].
For `Cc1csc2nc(COc3ccccc3NC(=O)c3ccco3)cc(=O)n12`, the Potency was inconclusive: 141 µM [inhibitor, partial curve, poor fit].
With `CSCC[C@H](NC(=O)c1cccs1)C(=O)N1CCC2(CC1)NCCc1[nH]cnc12` the Potency was “inactive”.
`O=C(NC(NC(=S)Nc1c(Cl)cccc1Cl)C(Cl)(Cl)Cl)c1cccc([N+](=O)[O-])c1` (stereo unspecified) was tested, and the Potency was inconclusive: 44.7 µM [inhibitor, partial curve, poor fit].
For `COc1ccc(CN2CCOc3ccc(CN4CCC(Oc5cccnc5)CC4)cc3C2)c(F)c1`, the Potency was “inactive”.
For `Cc1onc(-c2ccccc2)c1C(=O)N/N=C/C=C/c1ccccc1`, the Potency was “inactive”.
With `Cc1cc(C)c(S(=O)(=O)N(CC(=O)O)Cc2ccc(Cl)cc2)c(C)c1` the Potency was inconclusive: 79.4 µM [inhibitor, partial curve, poor fit].
In the case of `COc1ccc(C(=O)NCc2cccc(OC)c2)cc1`, the Potency is reported as inconclusive: 50.1 µM [inhibitor, single point].
`O=C(Cn1cnc([N+](=O)[O-])n1)c1ccc(O)c(O)c1` was tested, and the Potency was inconclusive: 3.98 µM [inhibitor, full curve, poor fit].
For `CCn1c(=S)[nH]c2c(c1=O)C(C)(C)Cc1ccccc1-2`, the Potency was inconclusive: 25.1 µM [inhibitor, partial curve].
`CCc1ccc(NC(=O)Cn2cc(S(=O)(=O)c3ccc(OC)cc3)c(=O)c3ccccc32)cc1` was tested, and the Potency was inconclusive: 63.1 µM [inhibitor, partial curve, poor fit].
For `C=CC#CC[N+]1(CC#Cc2ccccc2)CCOCC1`, the Potency was inconclusive: 79.4 µM [inhibitor, partial curve, poor fit].
For `CC(=O)N1CCc2c(sc3c2c(=O)n(-c2ccccc2)c(=O)n3CC(=O)Nc2ccccc2C)C1`, the Potency was inconclusive: 31.6 µM [inhibitor, full curve, poor fit].
With `Cc1cccc(C)c1NC(=S)N/N=C1\CC2CC=CC12` (stereo unspecified) the Potency was “inactive”.
With `O=[N+]([O-])c1ccc(O)c(C(C#Cc2ccccc2)N2CCOCC2)c1` (stereo unspecified) the Potency was “inactive”.
For `CC1=CC(C)(C)N(C(=O)CCl)c2ccccc21`, the Potency was “inactive”.
In the case of `COc1ccc(NC(=O)c2oc3ccccc3c2NC(=O)c2cc3ccccc3o2)cc1`, the Potency is reported as “inactive”.
With `CCOC(=O)c1sc(=S)n(C)c1N` the Potency was “inactive”.
In the case of `CCc1ccc(NS(=O)(=O)c2ccc3[nH]cc(C(=O)NCC4CCCO4)c(=O)c3c2)cc1` (stereo unspecified), the Potency is reported as inconclusive: 0.447 µM [inhibitor, full curve, poor fit].
`COc1cc(OC)c(OC)cc1/C=C1\N=C(SC)SC1=O` was tested, and the Potency was inconclusive: 44.7 µM [inhibitor, partial curve, poor fit].
`CCOc1ccc(NS(=O)(=O)c2ccc3[nH]cc(C(=O)N(C)Cc4ccccc4)c(=O)c3c2)cc1` was tested, and the Potency was inconclusive: 56.2 µM [inhibitor, partial curve, poor fit].
With `COc1cc(-c2cnc3n[nH]c(-c4ccc(F)cc4C)c3n2)ccn1` the Potency was inconclusive: 112 µM [inhibitor, single point].
With `Cc1c(C(=O)N2CCCC2)c(S(=O)(=O)N2c3ccccc3CC2C)c(C)n1C` (stereo unspecified) the Potency was “inactive”.
With `NS(=O)(=O)c1ccc(NNC(=O)c2ccc(F)cc2F)cc1` the Potency was “inactive”.
`CN(c1ccc(F)cc1)S(=O)(=O)c1ccc(Cl)c(C(=O)NCC2CCCO2)c1` (stereo unspecified) was tested, and the Potency was “inactive”.
For `COc1ccc(OC)c2c(=S)c3ccccc3[nH]c12`, the Potency was inconclusive: 28.2 µM [inhibitor, single point].
`S=C(c1ccc2c(c1)OCO2)N1CCN(c2cccc(Cl)c2)CC1` was tested, and the Potency was inconclusive: 56.2 µM [inhibitor, partial curve, poor fit].
In the case of `CC(=O)c1sc(-c2ccccc2)cc1NS(=O)(=O)c1ccccc1`, the Potency is reported as inconclusive: 70.8 µM [inhibitor, partial curve, poor fit].
`CCOc1ccccc1NC1c2ccccc2C(=O)N1c1cccnc1` (stereo unspecified) was tested, and the Potency was inconclusive: 11.2 µM [inhibitor, partial curve, poor fit].
For `O=C(c1ccc(Oc2ccccc2)cc1)N1CCNc2cnc(Nc3cccc(C(F)(F)F)c3)nc2C1`, the Potency was inconclusive: 50.1 µM [inhibitor, partial curve, poor fit].
With `O=C(NCCN1C(=O)S/C(=C\c2cccnc2)C1=O)C1=NN(c2ccccc2)C(=O)CC1` the Potency was inconclusive: 50.1 µM [inhibitor, partial curve, poor fit].
For `CCOc1cc(/C=C/c2cc(C(=O)O)c3ccccc3n2)ccc1OC`, the Potency was inconclusive: 50.1 µM [inhibitor, partial curve, poor fit] and inconclusive: 22.4 µM [inhibitor, partial curve, poor fit].
`CCOc1ccc(NC(=O)CSc2nnc3scc(-c4ccc(Cl)cc4)n23)cc1` was tested, and the Potency was inconclusive: 158 µM [inhibitor, partial curve, poor fit].
With `COC(=O)c1c(NC(C)=O)c2cc(NC(C)CC(C)(C)O)cnc2n1CCc1ccc(OC)cc1` (stereo unspecified) the Potency was “inactive”.
For `CC1CCCC(NC(=O)CCCCCn2c(=S)[nH]c3ccsc3c2=O)C1C` (stereo unspecified), the Potency was “inactive”.
